The target of assay [1] is T1, yeast eIF4E, endogenous in extracts of RH2585-derived strains (S. cerevisiae (endogenous in strain RH2585 derivatives)) (UniProt P07260).
T1 sequence: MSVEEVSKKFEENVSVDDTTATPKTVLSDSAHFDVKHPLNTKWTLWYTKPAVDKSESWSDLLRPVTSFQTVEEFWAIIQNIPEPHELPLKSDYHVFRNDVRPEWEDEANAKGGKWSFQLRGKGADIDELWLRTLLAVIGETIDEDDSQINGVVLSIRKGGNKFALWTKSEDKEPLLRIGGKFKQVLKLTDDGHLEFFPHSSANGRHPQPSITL
Nature of the assay: pull-down; 300 µg total yeast extract on m7GDP-Sepharose in buffer ADP, 1 h at 4 °C, eluted with 1 mM m7GDP; Western blot of eluates with polyclonal antibodies against eIF4E and p20. On the technique in general: A western blot detects proteins with antibodies after separation by electrophoresis.

In assay [2] the target is T2, yeast p20 R55-57L (3×) mutant, N-terminally His6x-tagged (S. cerevisiae) (UniProt P12962).
T2 sequence: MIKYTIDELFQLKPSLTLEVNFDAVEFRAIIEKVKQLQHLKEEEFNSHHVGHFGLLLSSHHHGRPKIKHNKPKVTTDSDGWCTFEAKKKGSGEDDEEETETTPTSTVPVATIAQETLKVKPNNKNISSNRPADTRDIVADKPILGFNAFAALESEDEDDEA
The experiment in a line: pull-down; untagged eIF4E and N-terminally His6x-tagged p20 (wild type or mutant) co-expressed in E. coli; lysate on Ni-NTA agarose 60 min at 4 °C, washed with 50 mM Tris.HCl pH 8, 500 mM NaCl, 20 mM imidazole, eluted with 250 mM imidazole.

For assay [3], the target named is T3, yeast p20 wild type, N-terminally His6x-tagged (S. cerevisiae) (UniProt P12962).
T3 sequence: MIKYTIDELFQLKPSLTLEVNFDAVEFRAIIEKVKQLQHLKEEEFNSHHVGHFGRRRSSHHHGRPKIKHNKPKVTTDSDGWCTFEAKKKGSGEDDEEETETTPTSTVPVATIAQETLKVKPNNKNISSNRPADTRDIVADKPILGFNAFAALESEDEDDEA
The description is as above.

Assay [4] has as its target T4, yeast p20 R55-57L, H60-62L (6×) mutant, N-terminally His6x-tagged (S. cerevisiae) (UniProt P12962).
T4 sequence: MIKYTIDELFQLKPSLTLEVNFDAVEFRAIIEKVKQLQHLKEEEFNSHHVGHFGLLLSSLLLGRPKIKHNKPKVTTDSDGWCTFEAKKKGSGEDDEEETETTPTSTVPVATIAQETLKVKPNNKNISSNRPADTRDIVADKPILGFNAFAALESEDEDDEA
Described as above.

No constants are given. Whether binding was seen depends on the method and setting. In cells and extracts the contact can be indirect. Some binding calls cover weakened binding; strength is not graded here. For part of these data: Sequences can lack the tags named with a protein.

B1: yeast p20 wild type expressed in yeast from an integrated plasmid (protein, UniProt P12962 1-161)
chain: MIKYTIDELFQLKPSLTLEVNFDAVEFRAIIEKVKQLQHLKEEEFNSHHVGHFGRRRSSHHHGRPKIKHNKPKVTTDSDGWCTFEAKKKGSGEDDEEETETTPTSTVPVATIAQETLKVKPNNKNISSNRPADTRDIVADKPILGFNAFAALESEDEDDEA
As to B1, the binding entry in assay [1] is “binds”.

B2: yeast p20 R55-57L, H60-62L (6×) mutant expressed in yeast from an integrated plasmid (protein, UniProt P12962 1-161)
chain: MIKYTIDELFQLKPSLTLEVNFDAVEFRAIIEKVKQLQHLKEEEFNSHHVGHFGLLLSSLLLGRPKIKHNKPKVTTDSDGWCTFEAKKKGSGEDDEEETETTPTSTVPVATIAQETLKVKPNNKNISSNRPADTRDIVADKPILGFNAFAALESEDEDDEA
As to B2, in assay [1], the binding entry is “binds”.

B3: yeast p20 R55-57L (3×) mutant expressed in yeast from an integrated plasmid (protein, UniProt P12962 1-161)
chain: MIKYTIDELFQLKPSLTLEVNFDAVEFRAIIEKVKQLQHLKEEEFNSHHVGHFGLLLSSHHHGRPKIKHNKPKVTTDSDGWCTFEAKKKGSGEDDEEETETTPTSTVPVATIAQETLKVKPNNKNISSNRPADTRDIVADKPILGFNAFAALESEDEDDEA
For the molecule B3, the binding result in assay [1] is reported as “binds”.

B4: yeast eIF4E (eukaryotic translation initiation factor 4E), untagged, co-expressed with His6x-p20 (protein, UniProt P07260 1-213)
chain: MSVEEVSKKFEENVSVDDTTATPKTVLSDSAHFDVKHPLNTKWTLWYTKPAVDKSESWSDLLRPVTSFQTVEEFWAIIQNIPEPHELPLKSDYHVFRNDVRPEWEDEANAKGGKWSFQLRGKGADIDELWLRTLLAVIGETIDEDDSQINGVVLSIRKGGNKFALWTKSEDKEPLLRIGGKFKQVLKLTDDGHLEFFPHSSANGRHPQPSITL
In the case of B4, the binding entry in assay [2], in assay [3] and in assay [4] was “binds” throughout.
